Laboratory results as given in patent US11433099B2, “Immunotherapy with B*08 restricted peptides and combination of peptides against cancers and related methods” (Immatics Biotechnologies GmbH, priority 2018, dated 2022).

Tested on: HLA peptide pools from tumor and normal tissue samples
Test: Identification and relative LC-MS quantitation of HLA-presented tumor associated peptides (presentation profiles)
Parameters: species or system human
Details: FIG. 1N; N=204 normal samples, N=206 tumor samples

Substance	over-presentation in HLA-B*44 cancer tissues compared to a panel of HLA-B*44 normal samples
EEFLTPKKL (listed as Homo sapiens) [SEQ ID NO: 290]	over-presentation

Same assay, conditions: FIGS. 1A to 1L; N=38 normal samples, N=91 tumor samples

Substance	over-presentation in HLA-B*08 cancer tissues compared to a panel of HLA-B*08 normal samples
VPYTKVQL (listed as Homo sapiens) [SEQ ID NO: 89]	over-presentation
DLRNKIIAA (listed as Homo sapiens) [SEQ ID NO: 46]	over-presentation
EPFTRPVL (listed as Homo sapiens) [SEQ ID NO: 13]	over-presentation

Same assay, conditions: cancer entities on which the peptide was found presented (Table 8A); value = entity abbreviations

Substance	Peptide Presentation on cancer entities
159 (DLRNKIIA; listed as Homo sapiens) [compound 159]	HNSCC, NSCLCsquam
45 (RLKVALSTL; listed as Homo sapiens) [compound 45]	CCC, CLL, MEL, NSCLCadeno, OSCAR, SCLC, UEC
50 (TLRLLVAAL; listed as Homo sapiens) [compound 50]	CCC, HNSCC, OSCAR, UBC
42 (VLRRKTLL; listed as Homo sapiens) [compound 42]	CLL, GC, NHL, NSCLCsquam, UEC
83 (FVLLRSVDL; listed as Homo sapiens) [compound 83]	BRCA, CCC, CLL, NHL, NSCLCother
209 (SRFGKFVQL; listed as Homo sapiens) [compound 209]	GC, HNSCC and UEC
116 (FTQNPRVQL; listed as Homo sapiens) [compound 116]	MEL
135 (EYLETKRLAF; listed as Homo sapiens) [compound 135]	HNSCC
62 (FMLAKEASL; listed as Homo sapiens) [compound 62]	NHL
172 (PYEKVSRL; listed as Homo sapiens) [compound 172]	CCC
89 (VPYTKVQL; listed as Homo sapiens) [compound 89]	BRCA, CCC, CRC, GBC, GC, HNSCC, MEL, NHL, NSCLCadeno, NSCLCsquam, PACA, PRCA, UBC, UEC
133 (QATPRVRIL; listed as Homo sapiens) [compound 133]	MEL, NSCLCsquam, UEC
169 (YELNNLHAL; listed as Homo sapiens) [compound 169]	MEL
140 (IAVDKPITL; listed as Homo sapiens) [compound 140]	MEL, NSCLCsquam
97 (EPVTKAEM; listed as Homo sapiens) [compound 97]	HNSCC
129 (HRILRLPAL; listed as Homo sapiens) [compound 129]	MEL
177 (SVPVRSSPL; listed as Homo sapiens) [compound 177]	NHL
235 (SPNSLVTIL; listed as Homo sapiens) [compound 235]	HNSCC
64 (FILGREAGAL; listed as Homo sapiens) [compound 64]	BRCA, CCC, HNSCC
121 (YSQLSISL; listed as Homo sapiens) [compound 121]	MEL
188 (EIMEKTTL; listed as Homo sapiens) [compound 188]	MEL, NSCLCsquam
184 (DRLKPLKM; listed as Homo sapiens) [compound 184]	MEL
203 (DVYTQVSAF; listed as Homo sapiens) [compound 203]	AML
239 (SEPVMRVTL; listed as Homo sapiens) [compound 239]	HNSCC

Substance	Peptide Presentation on cancer entities
61 (SIKKELVVL; listed as Homo sapiens) [compound 61]	GC, HNSCC, MEL, NSCLCadeno, NSCLCother, NSCLCsquam, PACA, UEC
34 (IYRKKYIL; listed as Homo sapiens) [compound 34]	CLL, NHL, UBC
56 (ILCGSRKMPL; listed as Homo sapiens) [compound 56]	NHL
49 (FLRVFTDSL; listed as Homo sapiens) [compound 49]	CLL, NHL, NSCLCother, SCLC
107 (LPKGLKDWQA; listed as Homo sapiens) [compound 107]	SCLC
205 (YMQYGFLSM; listed as Homo sapiens) [compound 205]	NSCLCsquam, OC
202 (RIPEKASFL; listed as Homo sapiens) [compound 202]	HCC
74 (RLKLRYEGL; listed as Homo sapiens) [compound 74]	CLL
87 (QILQHHVL; listed as Homo sapiens) [compound 87]	GBC, HNSCC
163 (EVMAQFKEI; listed as Homo sapiens) [compound 163]	OSCAR, UBC
228 (TLRAYVLAL; listed as Homo sapiens) [compound 228]	NSCLCother
127 (EPVIRTVSI; listed as Homo sapiens) [compound 127]	HNSCC
160 (LPINNTHI; listed as Homo sapiens) [compound 160]	NSCLCsquam, UBC
196 (LDLRQKVL; listed as Homo sapiens) [compound 196]	BRCA, CCC, CLL, CRC, GBC, GBM, GC, HCC, HNSCC, MEL, NHL, NSCLCadeno, NSCLCother, NSCLCsquam, OSCAR, PACA, PRCA, RCC, SCLC, UBC, UEC
238 (IPLAIARL; listed as Homo sapiens) [compound 238]	NSCLCsquam
126 (TAAEARLSL; listed as Homo sapiens) [compound 126]	AML, SCLC
237 (LPLDSRYVTL; listed as Homo sapiens) [compound 237]	NSCLCother
16 (NRKPRTPF; listed as Homo sapiens) [compound 16]	UEC
78 (DGHMKVFSL; listed as Homo sapiens) [compound 78]	HNSCC, NSCLCadeno, NSCLCsquam, PRCA
136 (KMFYRKDVM; listed as Homo sapiens) [compound 136]	GBC
80 (EVYLRMYQL; listed as Homo sapiens) [compound 80]	BRCA, CCC, CLL, HNSCC, MEL, NHL, NSCLCadeno, NSCLCother, NSCLCsquam, OC, SCLC, UEC
100 (VLLMGPLHL; listed as Homo sapiens) [compound 100]	NSCLCsquam
208 (LPPPQPLSL; listed as Homo sapiens) [compound 208]	NSCLCother
57 (MPLKHYLL; listed as Homo sapiens) [compound 57]	HNSCC

Substance	Peptide Presentation on cancer entities
65 (NLLMRNVL; listed as Homo sapiens) [compound 65]	NSCLCsquam
195 (EGNQKSVI; listed as Homo sapiens) [compound 195]	NHL, NSCLCadeno, NSCLCsquam, PACA, UEC
233 (DVKLVFVM; listed as Homo sapiens) [compound 233]	NHL, NSCLCother
31 (SPRVKWTF; listed as Homo sapiens) [compound 31]	GBM
179 (LPLTEHEL; listed as Homo sapiens) [compound 179]	HNSCC, NSCLCother, SCLC
25 (HLHPKGREL; listed as Homo sapiens) [compound 25]	HNSCC, NSCLCadeno
232 (KLYIHRVTL; listed as Homo sapiens) [compound 232]	MEL
35 (ELFQRPVL; listed as Homo sapiens) [compound 35]	CLL, NHL, NSCLCother, NSCLCsquam
68 (DLKIPRYPV; listed as Homo sapiens) [compound 68]	HNSCC, NSCLCadeno
110 (DAMTKHTL; listed as Homo sapiens) [compound 110]	NHL
211 (DVISKGVSL; listed as Homo sapiens) [compound 211]	MEL
43 (DLKKLVDSL; listed as Homo sapiens) [compound 43]	CRC, NSCLCother, UBC
39 (DAKSKIEQI; listed as Homo sapiens) [compound 39]	HNSCC, NSCLCsquam, PACA
71 (HIRIKHTF; listed as Homo sapiens) [compound 71]	HNSCC, NHL, NSCLCadeno, NSCLCsquam
52 (ELILKHSL; listed as Homo sapiens) [compound 52]	HNSCC, NHL, NSCLCadeno, NSCLCother
204 (MSPLLRSI; listed as Homo sapiens) [compound 204]	BRCA, CCC, CRC, GBC, GC, HCC, HNSCC, MEL, NSCLCother, NSCLCsquam, PACA, UEC
148 (DVNPVSLQL; listed as Homo sapiens) [compound 148]	HNSCC, NSCLCother
3 (SIQSRYISM; listed as Homo sapiens) [compound 3]	MEL
26 (DARCKLAEL; listed as Homo sapiens) [compound 26]	NSCLCadeno
44 (HLTNRVLSL; listed as Homo sapiens) [compound 44]	HNSCC, NSCLCsquam
164 (LPAPIPTLL; listed as Homo sapiens) [compound 164]	NSCLCother
85 (QKPRKKKL; listed as Homo sapiens) [compound 85]	CLL
181 (SIRSSYSRF; listed as Homo sapiens) [compound 181]	UEC
